Measurements published in the supplement of paper PMC10849652.
The list shows a part of the results.

Amino acid sequences for entries named in this document (tags omitted). A change or cut given only in a name is not applied to a line headed by its entry.
UniProt Q9NRH1: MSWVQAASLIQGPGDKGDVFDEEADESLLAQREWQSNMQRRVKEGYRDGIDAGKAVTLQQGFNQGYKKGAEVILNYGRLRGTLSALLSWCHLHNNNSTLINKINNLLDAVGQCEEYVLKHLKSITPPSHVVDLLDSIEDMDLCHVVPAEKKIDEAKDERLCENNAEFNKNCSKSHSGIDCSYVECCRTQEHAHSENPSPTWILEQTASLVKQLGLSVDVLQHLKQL
UniProt Q8IWR0: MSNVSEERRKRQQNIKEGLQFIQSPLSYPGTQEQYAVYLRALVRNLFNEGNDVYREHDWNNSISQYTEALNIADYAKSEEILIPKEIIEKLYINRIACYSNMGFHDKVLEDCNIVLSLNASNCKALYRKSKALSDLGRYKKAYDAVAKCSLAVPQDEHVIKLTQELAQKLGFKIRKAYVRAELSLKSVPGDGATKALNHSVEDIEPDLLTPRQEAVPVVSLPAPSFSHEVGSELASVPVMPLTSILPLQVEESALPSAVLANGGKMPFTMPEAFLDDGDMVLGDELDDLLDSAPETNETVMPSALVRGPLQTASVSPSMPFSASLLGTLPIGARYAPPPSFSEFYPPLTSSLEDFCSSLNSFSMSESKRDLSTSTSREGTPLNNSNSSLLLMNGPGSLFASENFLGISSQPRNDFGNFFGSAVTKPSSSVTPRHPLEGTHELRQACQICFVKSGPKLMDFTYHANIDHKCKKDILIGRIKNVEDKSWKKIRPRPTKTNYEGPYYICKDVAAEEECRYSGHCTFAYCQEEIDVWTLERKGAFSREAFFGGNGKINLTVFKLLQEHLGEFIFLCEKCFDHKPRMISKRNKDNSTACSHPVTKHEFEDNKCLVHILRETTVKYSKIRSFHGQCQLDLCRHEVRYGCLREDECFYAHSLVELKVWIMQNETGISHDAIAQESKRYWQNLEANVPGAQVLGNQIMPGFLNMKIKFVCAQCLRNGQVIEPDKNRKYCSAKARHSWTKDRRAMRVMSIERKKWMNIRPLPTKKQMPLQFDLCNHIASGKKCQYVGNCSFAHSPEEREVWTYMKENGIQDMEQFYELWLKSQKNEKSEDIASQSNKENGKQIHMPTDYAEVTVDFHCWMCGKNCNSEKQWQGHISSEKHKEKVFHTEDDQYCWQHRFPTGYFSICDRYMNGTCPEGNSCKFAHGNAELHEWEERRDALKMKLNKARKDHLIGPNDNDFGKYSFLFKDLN
UniProt Q9BQ24: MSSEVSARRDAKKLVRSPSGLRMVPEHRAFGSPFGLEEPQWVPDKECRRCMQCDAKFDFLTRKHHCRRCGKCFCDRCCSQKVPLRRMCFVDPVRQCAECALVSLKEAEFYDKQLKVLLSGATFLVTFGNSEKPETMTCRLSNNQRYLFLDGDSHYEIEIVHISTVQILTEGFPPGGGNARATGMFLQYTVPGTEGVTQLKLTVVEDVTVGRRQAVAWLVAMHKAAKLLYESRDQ
UniProt P47974: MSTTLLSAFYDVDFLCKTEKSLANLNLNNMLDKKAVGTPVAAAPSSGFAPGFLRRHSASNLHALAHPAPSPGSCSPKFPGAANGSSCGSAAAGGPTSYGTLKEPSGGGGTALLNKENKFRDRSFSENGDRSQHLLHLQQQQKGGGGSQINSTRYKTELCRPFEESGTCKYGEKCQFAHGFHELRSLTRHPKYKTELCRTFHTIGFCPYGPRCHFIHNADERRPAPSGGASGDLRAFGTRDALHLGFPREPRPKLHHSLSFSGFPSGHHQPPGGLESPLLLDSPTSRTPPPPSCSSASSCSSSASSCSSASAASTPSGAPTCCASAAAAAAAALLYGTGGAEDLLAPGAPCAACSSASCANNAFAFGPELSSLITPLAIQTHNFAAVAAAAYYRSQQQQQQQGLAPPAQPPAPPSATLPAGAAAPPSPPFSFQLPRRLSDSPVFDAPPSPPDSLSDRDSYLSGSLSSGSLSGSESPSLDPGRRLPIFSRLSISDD
UniProt Q96K21: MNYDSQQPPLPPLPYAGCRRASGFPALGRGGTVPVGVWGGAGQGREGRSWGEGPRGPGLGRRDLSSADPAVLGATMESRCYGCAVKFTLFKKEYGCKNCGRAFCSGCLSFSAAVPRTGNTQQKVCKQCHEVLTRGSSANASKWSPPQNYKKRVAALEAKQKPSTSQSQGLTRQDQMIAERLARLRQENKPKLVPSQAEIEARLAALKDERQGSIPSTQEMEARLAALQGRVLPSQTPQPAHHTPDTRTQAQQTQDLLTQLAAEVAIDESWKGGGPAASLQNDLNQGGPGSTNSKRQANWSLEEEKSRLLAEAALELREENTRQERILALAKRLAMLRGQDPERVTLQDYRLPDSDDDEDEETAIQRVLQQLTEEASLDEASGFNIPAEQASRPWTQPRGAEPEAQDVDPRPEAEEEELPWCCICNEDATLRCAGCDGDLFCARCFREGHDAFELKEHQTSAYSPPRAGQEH
UniProt O43167: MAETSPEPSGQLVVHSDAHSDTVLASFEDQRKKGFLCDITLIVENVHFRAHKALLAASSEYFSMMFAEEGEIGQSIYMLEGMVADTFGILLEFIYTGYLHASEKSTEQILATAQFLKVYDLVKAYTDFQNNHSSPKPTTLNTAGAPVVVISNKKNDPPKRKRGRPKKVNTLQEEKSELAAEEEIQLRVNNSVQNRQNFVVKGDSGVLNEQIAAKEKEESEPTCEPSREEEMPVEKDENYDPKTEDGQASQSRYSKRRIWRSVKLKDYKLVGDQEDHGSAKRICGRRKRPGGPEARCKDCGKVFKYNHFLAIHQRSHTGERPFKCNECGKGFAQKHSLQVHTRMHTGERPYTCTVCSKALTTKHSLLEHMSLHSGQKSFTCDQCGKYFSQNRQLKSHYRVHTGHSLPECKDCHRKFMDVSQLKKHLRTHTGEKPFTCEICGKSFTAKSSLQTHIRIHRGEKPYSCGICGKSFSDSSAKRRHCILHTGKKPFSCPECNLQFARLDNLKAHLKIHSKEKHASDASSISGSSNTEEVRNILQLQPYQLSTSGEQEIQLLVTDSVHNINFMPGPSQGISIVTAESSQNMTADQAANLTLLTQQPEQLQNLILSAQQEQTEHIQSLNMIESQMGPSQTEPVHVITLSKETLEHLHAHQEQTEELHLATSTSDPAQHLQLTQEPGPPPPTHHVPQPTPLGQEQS
UniProt O43592: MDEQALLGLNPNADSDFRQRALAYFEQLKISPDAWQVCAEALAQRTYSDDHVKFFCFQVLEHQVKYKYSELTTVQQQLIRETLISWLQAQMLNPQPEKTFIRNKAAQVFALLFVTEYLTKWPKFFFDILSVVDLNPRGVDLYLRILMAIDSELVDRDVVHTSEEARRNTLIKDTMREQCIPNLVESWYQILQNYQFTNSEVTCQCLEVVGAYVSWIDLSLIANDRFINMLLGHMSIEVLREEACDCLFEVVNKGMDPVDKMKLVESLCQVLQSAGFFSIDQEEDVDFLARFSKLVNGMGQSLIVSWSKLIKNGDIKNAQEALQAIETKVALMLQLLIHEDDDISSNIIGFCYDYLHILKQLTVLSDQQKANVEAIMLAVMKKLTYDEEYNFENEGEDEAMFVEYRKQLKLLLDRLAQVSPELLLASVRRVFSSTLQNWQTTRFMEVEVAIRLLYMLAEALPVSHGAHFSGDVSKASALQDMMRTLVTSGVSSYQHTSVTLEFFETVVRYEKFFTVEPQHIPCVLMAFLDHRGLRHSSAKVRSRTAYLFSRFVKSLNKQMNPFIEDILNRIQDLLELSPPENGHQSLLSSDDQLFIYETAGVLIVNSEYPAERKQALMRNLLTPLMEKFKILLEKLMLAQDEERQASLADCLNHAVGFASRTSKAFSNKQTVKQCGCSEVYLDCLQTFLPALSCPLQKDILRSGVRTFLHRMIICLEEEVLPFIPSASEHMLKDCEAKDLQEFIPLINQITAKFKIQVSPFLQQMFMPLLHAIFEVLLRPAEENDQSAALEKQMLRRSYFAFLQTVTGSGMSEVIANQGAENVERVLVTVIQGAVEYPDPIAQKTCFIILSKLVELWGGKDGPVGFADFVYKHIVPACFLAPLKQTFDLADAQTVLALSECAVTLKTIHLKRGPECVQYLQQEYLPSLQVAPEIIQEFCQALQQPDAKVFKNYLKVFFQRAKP
UniProt Q8IUH5: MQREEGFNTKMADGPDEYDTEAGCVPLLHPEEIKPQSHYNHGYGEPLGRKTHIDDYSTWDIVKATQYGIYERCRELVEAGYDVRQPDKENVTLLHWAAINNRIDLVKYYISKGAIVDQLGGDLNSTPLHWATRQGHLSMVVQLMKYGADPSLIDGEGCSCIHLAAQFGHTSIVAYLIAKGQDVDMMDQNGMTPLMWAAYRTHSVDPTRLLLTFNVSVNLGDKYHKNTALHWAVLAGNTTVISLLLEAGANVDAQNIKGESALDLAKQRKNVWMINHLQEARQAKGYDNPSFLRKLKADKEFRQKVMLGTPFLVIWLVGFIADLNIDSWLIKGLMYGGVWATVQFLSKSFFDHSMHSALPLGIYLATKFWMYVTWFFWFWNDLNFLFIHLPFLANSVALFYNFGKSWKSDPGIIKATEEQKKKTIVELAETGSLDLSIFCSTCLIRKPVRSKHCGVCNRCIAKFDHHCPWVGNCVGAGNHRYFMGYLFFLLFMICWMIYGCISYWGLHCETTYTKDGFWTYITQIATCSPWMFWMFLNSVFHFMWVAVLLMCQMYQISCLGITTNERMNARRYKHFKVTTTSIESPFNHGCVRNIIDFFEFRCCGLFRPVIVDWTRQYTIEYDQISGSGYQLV
UniProt Q96DA0: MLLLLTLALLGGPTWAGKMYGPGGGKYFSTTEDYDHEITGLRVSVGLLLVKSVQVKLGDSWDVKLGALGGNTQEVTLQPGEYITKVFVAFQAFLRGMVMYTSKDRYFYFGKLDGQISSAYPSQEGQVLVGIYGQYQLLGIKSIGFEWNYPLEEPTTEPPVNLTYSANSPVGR
UniProt Q8IY57: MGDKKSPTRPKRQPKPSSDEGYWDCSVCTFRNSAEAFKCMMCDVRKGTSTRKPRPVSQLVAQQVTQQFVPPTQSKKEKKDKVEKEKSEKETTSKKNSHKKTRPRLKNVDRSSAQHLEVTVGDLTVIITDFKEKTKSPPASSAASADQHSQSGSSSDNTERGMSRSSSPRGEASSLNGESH
UniProt Q9NQH7: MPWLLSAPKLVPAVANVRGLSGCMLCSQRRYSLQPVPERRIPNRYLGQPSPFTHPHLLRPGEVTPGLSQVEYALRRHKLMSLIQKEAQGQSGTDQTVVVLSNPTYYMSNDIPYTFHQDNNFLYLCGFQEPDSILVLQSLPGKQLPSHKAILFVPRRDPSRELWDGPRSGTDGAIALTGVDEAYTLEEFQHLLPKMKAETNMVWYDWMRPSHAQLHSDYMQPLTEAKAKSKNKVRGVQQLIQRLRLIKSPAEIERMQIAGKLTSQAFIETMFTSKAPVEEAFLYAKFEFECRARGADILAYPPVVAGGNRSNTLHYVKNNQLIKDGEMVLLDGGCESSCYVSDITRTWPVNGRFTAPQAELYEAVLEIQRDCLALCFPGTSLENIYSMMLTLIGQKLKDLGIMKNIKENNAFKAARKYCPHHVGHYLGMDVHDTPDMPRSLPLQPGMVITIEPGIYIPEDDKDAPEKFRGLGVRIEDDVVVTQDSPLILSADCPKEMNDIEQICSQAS
UniProt Q6FIF0: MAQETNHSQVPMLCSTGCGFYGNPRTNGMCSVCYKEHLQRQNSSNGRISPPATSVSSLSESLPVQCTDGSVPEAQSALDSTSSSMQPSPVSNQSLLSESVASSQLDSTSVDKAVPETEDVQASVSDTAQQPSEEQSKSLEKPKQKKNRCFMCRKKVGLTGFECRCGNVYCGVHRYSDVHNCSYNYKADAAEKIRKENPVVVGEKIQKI
UniProt Q8N680: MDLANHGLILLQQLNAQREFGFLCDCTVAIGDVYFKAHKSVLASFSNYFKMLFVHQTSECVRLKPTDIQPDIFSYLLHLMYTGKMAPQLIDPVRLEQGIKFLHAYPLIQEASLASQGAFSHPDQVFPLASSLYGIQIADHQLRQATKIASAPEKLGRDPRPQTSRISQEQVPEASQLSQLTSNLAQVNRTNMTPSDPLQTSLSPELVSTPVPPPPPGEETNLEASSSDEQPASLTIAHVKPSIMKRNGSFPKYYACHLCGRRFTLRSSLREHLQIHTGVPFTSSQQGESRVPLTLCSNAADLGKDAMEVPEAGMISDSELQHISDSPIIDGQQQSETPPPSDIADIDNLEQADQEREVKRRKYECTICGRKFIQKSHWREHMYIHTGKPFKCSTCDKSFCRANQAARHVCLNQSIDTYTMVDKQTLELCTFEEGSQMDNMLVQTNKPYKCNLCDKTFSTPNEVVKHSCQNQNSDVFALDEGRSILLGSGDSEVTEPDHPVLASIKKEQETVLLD
UniProt Q9BW85: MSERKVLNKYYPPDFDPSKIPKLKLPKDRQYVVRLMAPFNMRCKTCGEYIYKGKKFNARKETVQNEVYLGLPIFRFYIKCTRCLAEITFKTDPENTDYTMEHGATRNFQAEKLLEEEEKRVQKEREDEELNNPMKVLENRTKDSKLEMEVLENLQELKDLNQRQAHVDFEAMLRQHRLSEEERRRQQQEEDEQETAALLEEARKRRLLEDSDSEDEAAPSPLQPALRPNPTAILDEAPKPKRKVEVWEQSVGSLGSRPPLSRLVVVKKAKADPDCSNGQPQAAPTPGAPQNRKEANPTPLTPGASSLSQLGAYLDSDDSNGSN

Compound: COC(=O)N[C@@H](C)CNc1nccc(-c2cn(C(C)C)nc2-c2cc(Cl)cc(NS(C)(=O)=O)c2F)n1 [encorafenib]
Experiment: log2 fold change, soluble protein after heating vs DMSO (PISA); higher = thermal stabilisation; K562 lysate, 10 uM; active = over 0.2 and 3.5 SD of the protein, either way, in both replicates (recomputed)
Method in brief: (§1)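 The values are log-two fold changes in thermal stability compared with solvent controls and come from duplicates. They were obtained by TMTpro 16plex LC-MS/MS, with channel sums equalised, on the supernatant after 21,000xg for 90 min. That supernatant came from crude K562 extract at 1 mg/mL protein treated with 10 μM compound for 30 min, heated for 3 min across 48°C-58°C, pooled and brought to 0.5% NP-40 at 4°C.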

log2 fold change, inactive:
YAE1 (UniProt Q9NRH1) -0.12, ZC3H7A (UniProt Q8IWR0) 0.153, ZFYVE21 isoform 2 (UniProt Q9BQ24) 0.049, ZDHHC2 (UniProt Q9UIJ5) 0.084, ZFP36L2 (UniProt P47974) 0.069, ZDHHC14 (UniProt Q8IZN3) -0.018, ZFPM2 (UniProt Q8WW38) -0.187, YWHAH (UniProt Q04917) -0.045, ZFYVE19 (UniProt Q96K21) -0.001, ZFP64 isoform 5 (UniProt Q9NTW7) -0.019, ZBTB24 (UniProt O43167) -0.081, XPOT (UniProt O43592) 0.005, ZDHHC17 (UniProt Q8IUH5) -0.044, YIF1A (UniProt O95070) 0.034, ZG16B (UniProt Q96DA0) -0.056, ZFPL1 (UniProt O95159) 0.046, ZBTB7A (UniProt O95365) 0.336, ZFAND3 (UniProt Q9H8U3) 0.022, YAF2 isoform 5 (UniProt Q8IY57) -0.033, XPNPEP3 (UniProt Q9NQH7) 0.03, ZBTB3 (UniProt Q9H5J0) 0.081, ZBTB1 (UniProt Q9Y2K1) 0.111, ZFAND1 (UniProt Q8TCF1) -0.115, ZBTB10 (UniProt Q96DT7) -0.026, ZFAND6 (UniProt Q6FIF0) 0.015, ZBTB2 (UniProt Q8N680) -0.011, YY1AP1 isoform 9 (UniProt Q9H869) 0.03, YJU2 (UniProt Q9BW85) 0.054

Compound: COC(=O)[C@H](CCSC)NC(=O)C1=C(C=C(C=C1)NC[C@H](CS)N)C2=CC=CC=C2
Experiment: as above
Method in brief: as §1

log2 fold change, inactive:
YAE1 (UniProt Q9NRH1) -0.021, ZC3H7A (UniProt Q8IWR0) -0.029, ZFYVE21 isoform 2 (UniProt Q9BQ24) -0.081, ZDHHC2 (UniProt Q9UIJ5) -0.375, ZFP36L2 (UniProt P47974) -0.104, ZDHHC14 (UniProt Q8IZN3) 0.019, ZFPM2 (UniProt Q8WW38) 0.07, YWHAH (UniProt Q04917) 0, ZFYVE19 (UniProt Q96K21) -0.04, ZFP64 isoform 5 (UniProt Q9NTW7) -0.028, ZBTB24 (UniProt O43167) -0.117, XPOT (UniProt O43592) -0.094, ZDHHC17 (UniProt Q8IUH5) 0.183, YIF1A (UniProt O95070) 0.024, ZG16B (UniProt Q96DA0) 0.272, ZFPL1 (UniProt O95159) -0.071, ZBTB7A (UniProt O95365) -0.108, ZFAND3 (UniProt Q9H8U3) -0.058, YAF2 isoform 5 (UniProt Q8IY57) -0.067, XPNPEP3 (UniProt Q9NQH7) -0.039, ZBTB3 (UniProt Q9H5J0) -0.079, ZBTB1 (UniProt Q9Y2K1) 0.094, ZFAND1 (UniProt Q8TCF1) 0.091, ZBTB10 (UniProt Q96DT7) 0.028, ZFAND6 (UniProt Q6FIF0) -0.02, ZBTB2 (UniProt Q8N680) 0.118, YY1AP1 isoform 9 (UniProt Q9H869) 0.122, YJU2 (UniProt Q9BW85) -0.034

Compound: COc1cc(Nc2ncc3c(n2)-c2ccc(Cl)cc2C(c2c(F)cccc2OC)=NC3)ccc1C(=O)O [alisertib]
Experiment: as above
Method in brief: as §1

log2 fold change, inactive:
YAE1 (UniProt Q9NRH1) -0.038, ZC3H7A (UniProt Q8IWR0) 0.063, ZDHHC4 (UniProt Q9NPG8) -0.25, ZFYVE21 isoform 2 (UniProt Q9BQ24) -0.034, ZCRB1 (UniProt Q8TBF4) 0.021, ZFP36L2 (UniProt P47974) -0.155, ZDHHC14 (UniProt Q8IZN3) 0.013, YWHAH (UniProt Q04917) -0.049, ZFYVE19 (UniProt Q96K21) 0.008, ZBTB24 (UniProt O43167) -0.059, XPOT (UniProt O43592) 0, ZDHHC17 (UniProt Q8IUH5) 0.037, ZBTB14 (UniProt O43829) -0.069, ZADH2 (UniProt Q8N4Q0) 0.008, ZG16B (UniProt Q96DA0) 0.062, ZFPL1 (UniProt O95159) -0.07, ZFYVE1 (UniProt Q9HBF4) 0.247, XRCC3 (UniProt O43542) -0.048, XPNPEP3 (UniProt Q9NQH7) -0.053, ZFAND5 (UniProt O76080) 0.02, ZFAND6 (UniProt Q6FIF0) -0.02, ZBTB2 (UniProt Q8N680) -0.027, ZBTB40 (UniProt Q9NUA8) -0.187, YJU2 (UniProt Q9BW85) -0.048
